# Reference: patent US20230287338A1 (MINERVA BIOTECHNOLOGIES, published 2023)
# Sequences of proteins named here, by UniProt entry; tags and fusion partners are left off. Residues count along the entry.
# UniProt P15531, residues 2-152: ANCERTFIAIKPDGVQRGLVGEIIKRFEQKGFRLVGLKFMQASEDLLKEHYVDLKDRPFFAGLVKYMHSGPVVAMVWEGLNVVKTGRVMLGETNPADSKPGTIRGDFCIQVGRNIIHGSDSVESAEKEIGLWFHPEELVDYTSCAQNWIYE
# UniProt Q9Y5B8: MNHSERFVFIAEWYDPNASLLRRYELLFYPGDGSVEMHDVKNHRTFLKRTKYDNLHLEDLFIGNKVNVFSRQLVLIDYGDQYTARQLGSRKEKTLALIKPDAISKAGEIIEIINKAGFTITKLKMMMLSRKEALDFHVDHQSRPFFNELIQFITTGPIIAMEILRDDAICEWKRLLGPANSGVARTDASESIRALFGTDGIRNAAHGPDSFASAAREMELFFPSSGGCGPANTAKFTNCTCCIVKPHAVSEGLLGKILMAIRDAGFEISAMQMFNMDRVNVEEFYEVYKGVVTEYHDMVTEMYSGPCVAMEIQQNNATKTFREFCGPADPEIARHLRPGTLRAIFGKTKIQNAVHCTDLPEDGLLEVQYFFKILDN
# No constants are given. Whether binding was seen depends on the method and setting. Binding seen in cells or lysates may run through a third protein. Some entries that bind do so weakly or less than the wild type. For some assays here: Tags and fused reporters may be left off the sequences shown.
# Experiments:
# [1] = biological target: MUC1* (cleaved form of MUC1, MUC1* growth factor receptor), native (human) (UniProt P15941); test: co-immunoprecipitation with Ab-5 from cell lysates, Western blot
# [2] = biological target: MUC1* (cleaved form of MUC1, MUC1* growth factor receptor), native (human) (UniProt P15941); test: co-immunoprecipitation with Ab-5, Western blot
# [3] = biological target: T1, histidine-tagged MUC1* extra cellular domain peptide (His-tagged PSMGFR sequence); test: pull-down on NTA-Ni agarose beads from cell lysates, Western blot
# T1 sequence (peptide): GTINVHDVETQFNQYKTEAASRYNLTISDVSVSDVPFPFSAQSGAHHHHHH
# [4] = biological target: T1, histidine-tagged MUC1* extra cellular domain peptide (His-tagged PSMGFR sequence); test: pull-down from BGO1v lysate on peptide beads, Western blot
# [5] = biological target: T1, histidine-tagged MUC1* extra cellular domain peptide (His-tagged PSMGFR sequence); test: pull-down on NTA-Ni magnetic beads from cell lysates, Western blot
# [6] = biological target: T1, histidine-tagged MUC1* extra cellular domain peptide (His-tagged PSMGFR sequence); test: pull-down assay, Western blot
# [7] = biological target: T1, histidine-tagged MUC1* extra cellular domain peptide (His-tagged PSMGFR sequence); test: pull-down assay
binding [1],binding [2],binding [3],binding [4],binding [5],binding [6],binding [7],Substance
binds,binds,binds,,,,,"NME1 (NM23-H1), native, from human stem cell and cancer cell lysates (from UniProt P15531 2-152) (ligand)"
,,binds,binds,binds,binds,binds,"NME7 (NM23-H7), native, from human stem cell and cancer cell lysates (from UniProt Q9Y5B8 1-376) (ligand)"
